Measurements: patent US20050142634A1, “Novel modulator of non-genomic activity of nuclear receptors (mnar) and uses thereof” (Wyeth, priority 2001, published 2005)
These are yes or no findings as the source states them, for the method shown. In cells and extracts the contact can be indirect. Some binding calls cover weakened binding; strength is not graded here.

Sequences of proteins named here, by UniProt entry; tags and fusion partners are left off. Residues count along the entry.
UniProt P06239, residues 2-509: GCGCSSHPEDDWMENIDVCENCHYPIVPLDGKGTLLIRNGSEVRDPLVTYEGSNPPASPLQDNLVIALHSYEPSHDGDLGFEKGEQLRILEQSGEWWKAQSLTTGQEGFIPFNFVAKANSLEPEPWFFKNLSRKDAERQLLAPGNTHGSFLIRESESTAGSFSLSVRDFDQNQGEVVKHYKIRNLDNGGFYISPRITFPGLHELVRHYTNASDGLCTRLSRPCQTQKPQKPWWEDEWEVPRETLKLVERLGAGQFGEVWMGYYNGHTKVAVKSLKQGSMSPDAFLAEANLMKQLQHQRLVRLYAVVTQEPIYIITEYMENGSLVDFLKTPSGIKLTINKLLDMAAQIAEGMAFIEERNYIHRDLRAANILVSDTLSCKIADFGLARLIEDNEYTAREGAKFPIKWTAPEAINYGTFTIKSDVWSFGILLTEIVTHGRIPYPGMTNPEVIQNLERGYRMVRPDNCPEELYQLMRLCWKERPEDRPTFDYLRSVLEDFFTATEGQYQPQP
UniProt Q92731: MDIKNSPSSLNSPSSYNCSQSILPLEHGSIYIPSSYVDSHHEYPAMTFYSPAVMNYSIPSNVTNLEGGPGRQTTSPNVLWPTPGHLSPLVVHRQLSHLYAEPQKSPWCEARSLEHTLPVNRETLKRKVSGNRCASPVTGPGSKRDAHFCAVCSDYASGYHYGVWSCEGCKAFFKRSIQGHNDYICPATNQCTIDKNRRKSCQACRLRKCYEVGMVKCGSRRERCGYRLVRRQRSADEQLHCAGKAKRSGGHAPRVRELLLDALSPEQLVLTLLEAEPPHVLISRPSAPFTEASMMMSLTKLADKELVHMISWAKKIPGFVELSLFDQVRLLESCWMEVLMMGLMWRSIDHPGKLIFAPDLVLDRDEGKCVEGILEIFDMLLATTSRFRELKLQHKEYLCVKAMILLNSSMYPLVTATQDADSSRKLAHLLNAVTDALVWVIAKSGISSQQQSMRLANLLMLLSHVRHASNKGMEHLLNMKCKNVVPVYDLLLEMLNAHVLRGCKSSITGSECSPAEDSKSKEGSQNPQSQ
UniProt P03372: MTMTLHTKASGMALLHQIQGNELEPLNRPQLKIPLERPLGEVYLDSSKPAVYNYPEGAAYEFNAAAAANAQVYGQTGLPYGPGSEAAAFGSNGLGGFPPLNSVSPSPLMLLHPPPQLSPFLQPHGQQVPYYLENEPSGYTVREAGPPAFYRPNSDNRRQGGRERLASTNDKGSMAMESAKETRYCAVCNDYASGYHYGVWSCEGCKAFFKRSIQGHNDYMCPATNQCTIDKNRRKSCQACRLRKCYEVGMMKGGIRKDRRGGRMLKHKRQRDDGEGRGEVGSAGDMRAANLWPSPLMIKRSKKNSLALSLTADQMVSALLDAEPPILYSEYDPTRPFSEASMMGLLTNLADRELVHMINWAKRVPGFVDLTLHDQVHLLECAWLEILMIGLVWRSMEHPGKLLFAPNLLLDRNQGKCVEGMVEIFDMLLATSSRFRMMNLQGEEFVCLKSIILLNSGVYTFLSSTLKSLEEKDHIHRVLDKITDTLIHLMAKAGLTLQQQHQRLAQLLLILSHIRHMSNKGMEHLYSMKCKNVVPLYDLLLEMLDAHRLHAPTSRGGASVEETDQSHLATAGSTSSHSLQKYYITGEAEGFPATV
UniProt P04150: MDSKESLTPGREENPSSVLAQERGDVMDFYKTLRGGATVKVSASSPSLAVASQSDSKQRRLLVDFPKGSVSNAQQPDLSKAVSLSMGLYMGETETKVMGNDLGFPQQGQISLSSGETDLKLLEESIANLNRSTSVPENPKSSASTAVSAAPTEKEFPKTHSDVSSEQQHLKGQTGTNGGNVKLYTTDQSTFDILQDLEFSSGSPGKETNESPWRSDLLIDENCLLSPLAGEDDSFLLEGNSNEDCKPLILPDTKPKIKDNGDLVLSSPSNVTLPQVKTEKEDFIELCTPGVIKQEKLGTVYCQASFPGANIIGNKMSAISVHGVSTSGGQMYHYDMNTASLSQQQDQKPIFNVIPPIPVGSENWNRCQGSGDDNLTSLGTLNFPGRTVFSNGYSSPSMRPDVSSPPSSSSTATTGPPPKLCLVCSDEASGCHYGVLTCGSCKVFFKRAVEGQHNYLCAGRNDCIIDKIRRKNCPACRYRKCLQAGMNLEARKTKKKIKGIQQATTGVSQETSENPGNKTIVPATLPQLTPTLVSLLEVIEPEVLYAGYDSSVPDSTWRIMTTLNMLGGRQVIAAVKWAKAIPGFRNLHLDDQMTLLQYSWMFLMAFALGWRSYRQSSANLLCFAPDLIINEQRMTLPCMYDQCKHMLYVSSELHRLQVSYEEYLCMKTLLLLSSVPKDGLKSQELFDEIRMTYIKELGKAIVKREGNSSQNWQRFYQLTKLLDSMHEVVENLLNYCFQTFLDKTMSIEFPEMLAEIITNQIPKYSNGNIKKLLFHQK
UniProt P10275: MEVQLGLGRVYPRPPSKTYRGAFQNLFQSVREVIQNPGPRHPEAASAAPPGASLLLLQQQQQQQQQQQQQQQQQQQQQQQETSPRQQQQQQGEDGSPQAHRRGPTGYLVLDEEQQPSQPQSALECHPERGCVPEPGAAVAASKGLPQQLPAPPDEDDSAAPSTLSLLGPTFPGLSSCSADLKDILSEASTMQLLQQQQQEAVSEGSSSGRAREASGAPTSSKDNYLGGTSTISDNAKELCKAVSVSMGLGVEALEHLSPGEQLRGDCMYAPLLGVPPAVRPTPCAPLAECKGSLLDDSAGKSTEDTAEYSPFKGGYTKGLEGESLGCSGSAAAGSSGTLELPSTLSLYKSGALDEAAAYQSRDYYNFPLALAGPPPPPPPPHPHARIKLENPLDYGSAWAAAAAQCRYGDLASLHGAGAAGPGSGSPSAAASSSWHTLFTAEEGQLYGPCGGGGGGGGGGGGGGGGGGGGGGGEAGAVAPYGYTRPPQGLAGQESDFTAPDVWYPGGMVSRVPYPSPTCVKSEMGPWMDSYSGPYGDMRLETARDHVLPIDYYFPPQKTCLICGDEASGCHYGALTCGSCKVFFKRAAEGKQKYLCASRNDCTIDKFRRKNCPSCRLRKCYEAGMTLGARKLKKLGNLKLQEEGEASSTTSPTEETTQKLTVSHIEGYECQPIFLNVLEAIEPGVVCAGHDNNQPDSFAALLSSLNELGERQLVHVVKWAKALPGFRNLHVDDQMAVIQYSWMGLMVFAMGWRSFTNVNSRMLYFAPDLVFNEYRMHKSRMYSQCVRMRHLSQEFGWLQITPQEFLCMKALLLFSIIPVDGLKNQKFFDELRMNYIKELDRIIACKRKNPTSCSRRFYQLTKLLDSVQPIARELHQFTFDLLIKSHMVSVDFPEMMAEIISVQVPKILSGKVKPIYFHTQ

Legend:
[1] = target: Lck (UniProt P06239); assay: in vitro translated ER and MNAR with purified kinase, pull-down (summary in the Conclusions)
[2] = target: Lck (UniProt P06239); assay: pull-down (closing summary of the examples)
[3] = target: Lck (UniProt P06239); assay: in vitro translated ERα and MNAR with purified Lck, anti-Lck pull-down, with or without 1 µM E2
[4] = target: Lck (UniProt P06239); assay: in vitro translated ERβ and MNAR with purified Lck, antibody pull-down, with or without E2
[5] = target: Lck (UniProt P06239); assay: in vitro translated ERα with purified Lck, pull-down with anti-Lck antibody and protein A, autoradiography
[6] = target: Lck (UniProt P06239); assay: in vitro translated ERβ with purified Lck, antibody pull-down, autoradiography
[7] = target: estrogen receptor beta (ERβ), full-length (UniProt Q92731); assay: pull-down of in vitro translated [35S]-receptor with flag-MNAR (SF9 extract) on anti-FLAG sepharose, autoradiography
[8] = target: estrogen receptor alpha (ERα), full-length (UniProt P03372); assay: as above
[9] = target: estrogen receptor beta (ERβ), full-length (UniProt Q92731); assay: pull-down (summary of the result in the Conclusions)
[10] = target: estrogen receptor alpha (ERα), full-length (UniProt P03372); assay: as above
[11] = target: glucocorticoid receptor (GR) (UniProt P04150); assay: pull-down of in vitro translated [35S]-receptor with flag-MNAR (SF9 extract) on anti-FLAG sepharose, with and without hormone
[12] = target: androgen receptor (AR) (UniProt P10275); assay: as above
[13] = target: estrogen receptor beta (ERβ), full-length (UniProt Q92731); assay: pull-down (closing summary of the examples)
[14] = target: estrogen receptor alpha (ERα), full-length (UniProt P03372); assay: pull-down (closing summary of the examples)
[15] = target: estrogen receptor alpha (ERα), full-length (UniProt P03372); assay: co-immunoprecipitation with ERα antiserum from MCF-7 cells, probed with rabbit polyclonal anti-MNAR antibody
[16] = target: estrogen receptor alpha (ERα), full-length (UniProt P03372); assay: co-immunoprecipitation with ERα antiserum from MCF-7 cells, Western blot with anti-MNAR antibody; enhanced by E2

Measured: binding

MNAR-ERα complex (from UniProt P03372 1-595)
binds: [1] | [2] | [3]

MNAR-ERβ complex (from UniProt Q92731 1-530)
binds: [4] | [1] | [2]

estrogen receptor alpha (ERα), full-length (from UniProt P03372 1-595)
binds: [5]

estrogen receptor beta (ERβ), full-length (from UniProt Q92731 1-530)
binds: [6]

full-length flag-MNAR (from UniProt Q8IZL8 2-1130)
binds: [7] | [8] | [9] | [10] | [11] | [12] | [13] | [14]

modulator of non-genomic activity of nuclear receptors (MNAR) (from UniProt Q8IZL8 2-1130)
binds: [15] | [16]
